In test [1] the target is T1, DDIT4L (GST pull-down, purified protein interaction experiment and peptide experiment, Fig. S7C, S7D, S7G, S7H) (UniProt Q96D03).
T1 sequence: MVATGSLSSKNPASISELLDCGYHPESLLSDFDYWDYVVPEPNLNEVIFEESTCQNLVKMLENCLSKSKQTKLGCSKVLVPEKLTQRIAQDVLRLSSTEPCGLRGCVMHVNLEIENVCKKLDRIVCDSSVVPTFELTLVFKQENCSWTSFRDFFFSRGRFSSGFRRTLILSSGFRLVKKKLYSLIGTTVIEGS
Kind of test: purified protein interaction experiment; purified proteins (Fig. S7D); both purified.

Amino acid sequences for entries named in this document (tags omitted). A change or cut given only in a name is not applied to a line headed by its entry. Residues count along the entry.
UniProt P25705, residues 44-553: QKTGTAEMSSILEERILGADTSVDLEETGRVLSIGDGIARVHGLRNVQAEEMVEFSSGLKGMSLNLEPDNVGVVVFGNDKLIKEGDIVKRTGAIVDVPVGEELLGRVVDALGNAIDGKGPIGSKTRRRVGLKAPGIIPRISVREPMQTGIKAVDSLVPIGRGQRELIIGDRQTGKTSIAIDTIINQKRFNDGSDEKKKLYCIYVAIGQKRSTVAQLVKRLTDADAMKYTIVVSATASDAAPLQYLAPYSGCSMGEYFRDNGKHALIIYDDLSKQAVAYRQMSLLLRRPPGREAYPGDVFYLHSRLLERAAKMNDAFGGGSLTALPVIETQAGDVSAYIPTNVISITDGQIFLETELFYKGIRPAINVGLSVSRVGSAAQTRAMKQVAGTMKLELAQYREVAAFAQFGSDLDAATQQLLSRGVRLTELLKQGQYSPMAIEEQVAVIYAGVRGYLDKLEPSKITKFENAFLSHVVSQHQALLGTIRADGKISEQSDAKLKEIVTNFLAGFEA

For test [2], the target named is T1, DDIT4L (GST pull-down, purified protein interaction experiment and peptide experiment, Fig. S7C, S7D, S7G, S7H). Kind of test: pull-down; GST pull-down (Fig. S7C, S7G); which partner carried GST is not told.
In test [3] the target is T2, DDIT4L (in GBM primary cells, Fig. S7B) (UniProt Q96D03).
T2 sequence: T1 sequence
Kind of test: co-IP; in GBM primary cells (Fig. S7B).

No constants are given. Whether binding was seen depends on the method and setting. For some of these results: Binding seen in cells or lysates may run through a third protein. Some binding calls cover weakened binding; strength is not graded here. For some of these results: Sequences can lack the tags named with a protein.

“ATP5A (GST pull-down, purified protein interaction experiment and peptide experiment, Fig. S7C, S7D, S7G, S7H) (from UniProt P25705 44-553)”: the binding entry in test [1] and in test [2] was “binds” throughout.

Take “ATP5A (in GBM primary cells, Fig. S7B) (from UniProt P25705 44-553)”: the binding result in test [3] was “binds”.

Consider “ATP5B (in GBM primary cells, Fig. S7B) (from UniProt P06576 48-529)”, for which, in test [3], the binding entry is given as “binds”.

Source of the values: PMC13571239.
